No constants are given. Whether binding was seen depends on the method and setting. Some entries that bind do so weakly or less than the wild type.
Molecular target: monkey PSMA-His (ACRO, PSA-C5247) (monkey (cynomolgus))
Assay: SPR (Biacore T200)

B1: P19 (19L2H2) (antibody, human IgG1, kappa, V domains shown)
VH: EVKLVESGGGLVQPGGSLRLSCAASGFTFSDYYMAWVRQAPGKGLEWVANINYDGSSTYYLDSLKSRFTISRDNAKNSLYLQMNSLRAEDTAVYYCARGGDYWDAMDYWGQGTTVTVSS
VL: DIQMTQSPSSLSASVGDRVTITCRASQDISKYLNWYQQKPGKAPKLLIYYTSSLHSGVPSRFSGSGSGTDYTLTISSLQPEDFATYYCQQGNRLPRTFGGGTKVEIKR
binding: binds

From patent publication EP4755403A1, “ANTI-PSMA ANTIBODY-DRUG CONJUGATE AND PHARMACEUTICAL USE THEREOF” (priority 2023, dated 2025)
